Measured values from PubChem BioAssay AID651640 (Broad Institute, 2012).
About 6,000 (1.7%) of roughly 350,000 compounds were called active. The inconclusive results got no clear call from the source; some entries with a clear call stand among them for comparison. No stated cut-off is given here; in the data, active means CPE inhibition above about 20% (passing the limit was not always enough); inconclusive means no clear call, values can overlap the other calls; tested in BHK-21 cells.

assay: protection of cells from dengue 2 killing – plate reader, single concentration, primary screen (AID 651640); details: DENV2-infected cells, cytopathic effect rescue, at 9.99 µM, hits give high values;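 further: 0% = median of neutral control wells and 100% = median of positive control wells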

SMILES | CPE inhibition
COc1ccc(S(=O)(=O)Nc2ccc3c(c2)C(=O)N([C@@H](C)CO)C[C@H](C)[C@H](CN(C)Cc2ccc(C(=O)Nc4ccccc4N)cc2)O3)cc1 | active: 22.9%
Cc1csc(/C(=N/OC(=O)c2ccco2)C(N)=O)n1 | active: 35%
C[C@@H]1CN([C@H](C)CO)C(=O)Cc2cc(NC(=O)Cn3cnnn3)ccc2O[C@H]1CN(C)S(=O)(=O)c1ccccc1 | inactive: 15.6%
CCOc1ccc(C(=O)Nc2cc(C)c3c(=O)oc4ccccc4c3n2)cc1 | inconclusive: 43%
CCC(=O)N1[C@H](CO)[C@H](c2ccccc2)C12CN(C(=O)Nc1ccccc1F)C2 | active: 27.1%
O=C(N/N=C/c1cccc(Oc2ccccc2)c1)c1ccncc1 | inconclusive: 27.7%
CCCCC(=O)OCc1c(-c2ccccc2)ncc2ccccc12 | inactive: -1.1%
O=C(CN1CCN(S(=O)(=O)c2ccccc2F)CC1)NC1CCCC1 | active: 21.6%
CCCCCCCCCCCCCCCC[n+]1ccccc1 | inconclusive: 30.6%
C[C@@H]1CN([C@@H](C)CO)S(=O)(=O)c2ccc(C#C[C@@H](C)O)cc2O[C@@H]1CN(C)Cc1cncnc1 | inconclusive: 4.69%
CCn1nc(NC(=O)C(C)(C)C)c2cc3cccc(C)c3nc21 | inconclusive: 27.2%
C[C@@H]1CN([C@@H](C)CO)S(=O)(=O)c2ccc(-c3cccnc3)cc2O[C@@H]1CN(C)C(=O)C1CCCCC1 | inactive: -2.23%
C[C@H]1CN([C@@H](C)CO)C(=O)c2cc(NC(=O)Cn3cnnn3)ccc2O[C@@H]1CN(C)C | inconclusive: 44%
COC(=O)N1CCCCC1c1cc(C(=O)Nc2ccc(OC)cc2C)no1 (stereo not given) | active: 50.6%
Clc1cc(Br)ccc1OCCOCCN1CCCC1 | active: 24.8%
Cc1ccc(S(=O)(=O)c2cc3c(=O)n4cccc(C)c4nc3n(CCc3ccccc3)c2=N)cc1C | inconclusive: 33.5%
Cc1nc(=O)c(-c2ccccc2)c(C)n1-c1ccccc1Cl | inconclusive: 20.4%
COC(=O)CSc1nnc(NC(=O)C2CC(=O)N(c3ccc(F)cc3)C2)s1 (stereo not given) | inconclusive: 25%
Oc1ccccc1-c1nc(NCc2cccnc2)c2ccccc2n1 | inconclusive: 62%
COc1ccccc1CNC(=O)c1cc(-c2cc(Cl)ccc2C)n[nH]1 | inconclusive: 25.3%
O=C(OCC(=O)N1CCOCC1)c1ccccc1OCc1ccccc1 | inconclusive: 35.6%
C/C(N)=C(/C#N)C(=O)CN1C(=O)NC(Cc2c[nH]c3ccccc23)C1=O (stereo not given) | inconclusive: 20.6%
COc1ccc(CCN(C)C(=O)c2ccc(S(=O)(=O)Nc3ccccc3F)cc2)cc1OC | inconclusive: 36.4%
Cc1ccc(OCCOCCN2CCCC2)c(Br)c1 | active: 43.7%
COc1cc(C(=O)O[C@H]2CC(C)=CC[C@@]3(C)CC[C@@](O)(C(C)C)[C@H]23)ccc1O | inconclusive: 25.4%

Structures above that have an NH in an aromatic ring:
SMILES | CPE inhibition
COc1ccccc1CNC(=O)c1cc(-c2cc(Cl)ccc2C)n[nH]1 | inconclusive: 25.3%
C/C(N)=C(/C#N)C(=O)CN1C(=O)NC(Cc2c[nH]c3ccccc23)C1=O (stereo not given) | inconclusive: 20.6%

(cont.)

SMILES | CPE inhibition
COc1ccc(S(=O)(=O)Nc2ccc3c(c2)CC(=O)N([C@H](C)CO)C[C@H](C)[C@@H](CN(C)C(=O)NC(C)C)O3)cc1 | active: 21.3%
Cc1ccsc1CNC(=O)c1c(-c2ccccc2)noc1C | inconclusive: 44.8%
Cc1ccc(S(=O)(=O)N(C)C[C@@H]2OCCCC[C@H](C)Oc3ccc(NC(=O)CCC(F)(F)F)cc3C(=O)N([C@@H](C)CO)C[C@@H]2C)cc1 | inconclusive: 34.1%
CO[C@@H](CCO)[C@@H](O)c1ccc(O)c(F)c1 | inactive: 7.66%
O=C(CCc1ccc(O)c(O)c1)NNC(=S)NCCc1ccccc1 | inconclusive: 63.1%
C[C@@H]1CN([C@H](C)CO)C(=O)c2cccc(NC(=O)Nc3ccccc3)c2O[C@@H]1CN(C)S(=O)(=O)c1ccc(Cl)cc1 | inactive: -15.5%
CCNC(=O)C[C@H]1CC[C@@H]2[C@H](COc3ccc(NS(C)(=O)=O)cc3C(=O)N2C)O1 | inactive: 0.81%
CCNC(=O)[C@H]1[C@H](CO)[C@H]2Cn3c(ccc(-c4cccc(C(=O)N(C)C)c4)c3=O)[C@@H]1N2 | inconclusive: 55.3%
Cc1ccc2nc3c(c(N)c2c1)CCN3C | inconclusive: 40.1%
CN(C)c1cccc(C(=O)NCc2ccc3c(c2)OCO3)c1 | inconclusive: 20.8%
C[C@H]1CN([C@@H](C)CO)C(=O)Cc2cc(NC(=O)CCCCCC(=O)Nc3ccccc3N)ccc2O[C@H]1CN(C)Cc1ccc(C(F)(F)F)cc1 | active: 80.4%
CC(C)(C)C(=O)c1c(N)[nH]c(C(=O)c2ccccc2)c1-c1c(F)cccc1F | inconclusive: 25.5%
CC1(C)COCN1C(=O)c1ccc(C#N)cc1 | inconclusive: 44.7%
C/C=C/c1ccc([C@H]2[C@@H](CN(C)C(=O)CC)N(C(=O)NC(C)C)[C@H]2CO)cc1 | active: 27.2%
CN1\C(=C/C=C/C=C/C=[N+](C)C)C(C)(C)c2ccccc21 | inactive: 2.55%
Cc1ccc(-c2nn(-c3ccccc3Cl)cc2C(=O)NCC2CCCO2)cc1 (stereo not given) | active: 30.2%
CSCCC(NS(=O)(=O)c1ccccc1F)C(=O)N1CCCCCCC1 (stereo not given) | inconclusive: 23.3%
O=C(c1cccc(Cl)c1)N1CCC(N2CCC(C(=O)N3CCCC3)CC2)CC1 | inconclusive: 21.8%
COCC(=O)Nc1ccc2c(c1)OC[C@H](C)N(CC1CC1)C[C@H](C)[C@H](OC)CN(C)C2=O | inconclusive: 33.8%
CCCNC(=O)N1CC2(C1)CN(C(C)=O)[C@H](CO)c1[nH]c3cc(OC)ccc3c12 | inactive: -7.04%
COc1cccc(-c2cnc3c(NC=O)cc(-c4ccc(N(C)C)cc4)cn23)c1 | inconclusive: 21.4%
COc1ccc(CCNC(=S)NC2CCN(Cc3ccccc3)CC2)cc1OC | inconclusive: 24.5%
Cc1ccc(S(=O)(=O)NC(=O)C2(C)CCN2C(=O)c2ccc(C(F)(F)F)nc2C)cc1 (stereo not given) | active: 51.4%
N#C[C@H]1[C@H](c2ccccc2-c2ccccc2F)[C@@H](CO)N1C(=O)Cc1ccccc1 | inactive: 3.66%
CO[C@H]1CN(C)C(=O)c2cc(NC(=O)C3CC3)ccc2OC[C@H](C)N(Cc2ccccc2)C[C@@H]1C | inactive: 8.47%
